Results are given in words; binding and its absence hold for the method and conditions named. Binding seen in cells or lysates may run through a third protein. These calls come from enrichment with a bait or labelling near it, and not all partners need be listed.
Key:
[1] = target: Estrogen Receptor alpha (ERα) (human (endogenous in MCF7, human PDX tumours and human breast tumours)) (UniProt P03372); experiment: affinity purification with mass spectrometry; qPLEX-RIME: endogenous ERα precipitated (sc-543, Protein A Dynabeads) from asynchronous MCF7 cells, single crosslinking with 1% FA, sonicated nuclei; TMT-10plex, MultiNotch MS3; five replicates against matched IgG controls
[2] = target: Estrogen Receptor alpha (ERα) (human (endogenous in MCF7, human PDX tumours and human breast tumours)) (UniProt P03372); experiment: affinity purification with mass spectrometry; qPLEX-RIME: endogenous ERα precipitated from cryosections (30 µm) of three ER positive human PDX tumours (HCI-003, HCI-005, HCI-006), double crosslinking, against matched IgG pull-downs
[3] = target: Estrogen Receptor alpha (ERα) (human (endogenous in MCF7, human PDX tumours and human breast tumours)) (UniProt P03372); experiment: affinity purification with mass spectrometry; qPLEX-RIME: endogenous ERα precipitated from MCF7 cells treated with vehicle (ethanol, 24 h) or 100 nM OHT for 2 h, 6 h and 24 h, double crosslinking, 3 x 10plex, against IgG controls; values corrected for the amount of ERα
[4] = target: Estrogen Receptor alpha (ERα) (human (endogenous in MCF7, human PDX tumours and human breast tumours)) (UniProt P03372); experiment: affinity purification with mass spectrometry; qPLEX-RIME: endogenous ERα precipitated from cryosections of five human breast cancer tumours (ERα positive, PR positive, Her2 negative), double crosslinking, against matched IgG pull-downs
[5] = target: NCOA3 (SRC-3) (human (endogenous in MCF7)) (UniProt Q9Y6Q9); experiment: affinity purification with mass spectrometry; qPLEX-RIME: endogenous NCOA3 precipitated (Bethyl A300-347A) from MCF7 cells, double crosslinking (DSG, FA), against IgG controls
[6] = target: CBP (CREB-binding protein) (human (endogenous in MCF7, human PDX tumours and human breast tumours)) (UniProt Q92793); experiment: affinity purification with mass spectrometry; qPLEX-RIME: endogenous CBP precipitated (Diagenode C15410224) from MCF7 cells, double crosslinking (DSG, FA), against IgG controls

Sequences of proteins named here, by UniProt entry; tags and fusion partners are left off.
UniProt Q9Y6Q9: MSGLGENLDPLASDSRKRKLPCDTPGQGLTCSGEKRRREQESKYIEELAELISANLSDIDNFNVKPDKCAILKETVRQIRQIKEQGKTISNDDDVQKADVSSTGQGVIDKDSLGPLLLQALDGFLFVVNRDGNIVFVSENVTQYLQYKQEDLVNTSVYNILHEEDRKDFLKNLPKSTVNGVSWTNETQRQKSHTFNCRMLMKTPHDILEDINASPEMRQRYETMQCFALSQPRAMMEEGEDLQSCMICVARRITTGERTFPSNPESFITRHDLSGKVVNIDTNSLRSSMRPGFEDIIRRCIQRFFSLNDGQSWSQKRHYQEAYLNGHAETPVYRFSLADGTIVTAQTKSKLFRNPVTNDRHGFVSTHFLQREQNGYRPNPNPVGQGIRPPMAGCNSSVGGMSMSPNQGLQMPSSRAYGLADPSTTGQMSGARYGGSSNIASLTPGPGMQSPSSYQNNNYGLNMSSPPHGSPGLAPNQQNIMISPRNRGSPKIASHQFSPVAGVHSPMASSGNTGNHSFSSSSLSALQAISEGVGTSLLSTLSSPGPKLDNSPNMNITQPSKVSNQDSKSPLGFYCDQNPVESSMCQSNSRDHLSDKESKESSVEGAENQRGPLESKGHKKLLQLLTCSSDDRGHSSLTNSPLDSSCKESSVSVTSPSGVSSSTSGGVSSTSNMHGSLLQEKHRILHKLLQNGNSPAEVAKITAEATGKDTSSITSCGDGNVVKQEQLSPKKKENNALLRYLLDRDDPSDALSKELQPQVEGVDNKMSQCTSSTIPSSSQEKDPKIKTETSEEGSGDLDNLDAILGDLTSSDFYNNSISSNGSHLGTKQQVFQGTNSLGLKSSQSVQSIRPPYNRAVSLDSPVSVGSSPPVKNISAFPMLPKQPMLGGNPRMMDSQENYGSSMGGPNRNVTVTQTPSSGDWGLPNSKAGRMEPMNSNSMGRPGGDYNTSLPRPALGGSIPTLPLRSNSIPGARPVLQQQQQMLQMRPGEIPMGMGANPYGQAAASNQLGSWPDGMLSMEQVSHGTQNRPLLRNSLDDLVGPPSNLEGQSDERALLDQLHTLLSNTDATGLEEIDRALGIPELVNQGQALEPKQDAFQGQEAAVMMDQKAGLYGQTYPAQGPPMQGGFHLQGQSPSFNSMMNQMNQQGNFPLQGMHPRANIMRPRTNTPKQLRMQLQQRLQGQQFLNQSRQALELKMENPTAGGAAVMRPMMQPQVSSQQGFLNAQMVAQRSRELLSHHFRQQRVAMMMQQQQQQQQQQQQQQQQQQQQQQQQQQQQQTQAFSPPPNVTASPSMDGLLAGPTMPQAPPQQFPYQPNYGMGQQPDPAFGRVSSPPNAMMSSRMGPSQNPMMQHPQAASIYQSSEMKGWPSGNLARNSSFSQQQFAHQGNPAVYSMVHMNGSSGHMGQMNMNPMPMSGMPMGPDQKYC
UniProt Q92793: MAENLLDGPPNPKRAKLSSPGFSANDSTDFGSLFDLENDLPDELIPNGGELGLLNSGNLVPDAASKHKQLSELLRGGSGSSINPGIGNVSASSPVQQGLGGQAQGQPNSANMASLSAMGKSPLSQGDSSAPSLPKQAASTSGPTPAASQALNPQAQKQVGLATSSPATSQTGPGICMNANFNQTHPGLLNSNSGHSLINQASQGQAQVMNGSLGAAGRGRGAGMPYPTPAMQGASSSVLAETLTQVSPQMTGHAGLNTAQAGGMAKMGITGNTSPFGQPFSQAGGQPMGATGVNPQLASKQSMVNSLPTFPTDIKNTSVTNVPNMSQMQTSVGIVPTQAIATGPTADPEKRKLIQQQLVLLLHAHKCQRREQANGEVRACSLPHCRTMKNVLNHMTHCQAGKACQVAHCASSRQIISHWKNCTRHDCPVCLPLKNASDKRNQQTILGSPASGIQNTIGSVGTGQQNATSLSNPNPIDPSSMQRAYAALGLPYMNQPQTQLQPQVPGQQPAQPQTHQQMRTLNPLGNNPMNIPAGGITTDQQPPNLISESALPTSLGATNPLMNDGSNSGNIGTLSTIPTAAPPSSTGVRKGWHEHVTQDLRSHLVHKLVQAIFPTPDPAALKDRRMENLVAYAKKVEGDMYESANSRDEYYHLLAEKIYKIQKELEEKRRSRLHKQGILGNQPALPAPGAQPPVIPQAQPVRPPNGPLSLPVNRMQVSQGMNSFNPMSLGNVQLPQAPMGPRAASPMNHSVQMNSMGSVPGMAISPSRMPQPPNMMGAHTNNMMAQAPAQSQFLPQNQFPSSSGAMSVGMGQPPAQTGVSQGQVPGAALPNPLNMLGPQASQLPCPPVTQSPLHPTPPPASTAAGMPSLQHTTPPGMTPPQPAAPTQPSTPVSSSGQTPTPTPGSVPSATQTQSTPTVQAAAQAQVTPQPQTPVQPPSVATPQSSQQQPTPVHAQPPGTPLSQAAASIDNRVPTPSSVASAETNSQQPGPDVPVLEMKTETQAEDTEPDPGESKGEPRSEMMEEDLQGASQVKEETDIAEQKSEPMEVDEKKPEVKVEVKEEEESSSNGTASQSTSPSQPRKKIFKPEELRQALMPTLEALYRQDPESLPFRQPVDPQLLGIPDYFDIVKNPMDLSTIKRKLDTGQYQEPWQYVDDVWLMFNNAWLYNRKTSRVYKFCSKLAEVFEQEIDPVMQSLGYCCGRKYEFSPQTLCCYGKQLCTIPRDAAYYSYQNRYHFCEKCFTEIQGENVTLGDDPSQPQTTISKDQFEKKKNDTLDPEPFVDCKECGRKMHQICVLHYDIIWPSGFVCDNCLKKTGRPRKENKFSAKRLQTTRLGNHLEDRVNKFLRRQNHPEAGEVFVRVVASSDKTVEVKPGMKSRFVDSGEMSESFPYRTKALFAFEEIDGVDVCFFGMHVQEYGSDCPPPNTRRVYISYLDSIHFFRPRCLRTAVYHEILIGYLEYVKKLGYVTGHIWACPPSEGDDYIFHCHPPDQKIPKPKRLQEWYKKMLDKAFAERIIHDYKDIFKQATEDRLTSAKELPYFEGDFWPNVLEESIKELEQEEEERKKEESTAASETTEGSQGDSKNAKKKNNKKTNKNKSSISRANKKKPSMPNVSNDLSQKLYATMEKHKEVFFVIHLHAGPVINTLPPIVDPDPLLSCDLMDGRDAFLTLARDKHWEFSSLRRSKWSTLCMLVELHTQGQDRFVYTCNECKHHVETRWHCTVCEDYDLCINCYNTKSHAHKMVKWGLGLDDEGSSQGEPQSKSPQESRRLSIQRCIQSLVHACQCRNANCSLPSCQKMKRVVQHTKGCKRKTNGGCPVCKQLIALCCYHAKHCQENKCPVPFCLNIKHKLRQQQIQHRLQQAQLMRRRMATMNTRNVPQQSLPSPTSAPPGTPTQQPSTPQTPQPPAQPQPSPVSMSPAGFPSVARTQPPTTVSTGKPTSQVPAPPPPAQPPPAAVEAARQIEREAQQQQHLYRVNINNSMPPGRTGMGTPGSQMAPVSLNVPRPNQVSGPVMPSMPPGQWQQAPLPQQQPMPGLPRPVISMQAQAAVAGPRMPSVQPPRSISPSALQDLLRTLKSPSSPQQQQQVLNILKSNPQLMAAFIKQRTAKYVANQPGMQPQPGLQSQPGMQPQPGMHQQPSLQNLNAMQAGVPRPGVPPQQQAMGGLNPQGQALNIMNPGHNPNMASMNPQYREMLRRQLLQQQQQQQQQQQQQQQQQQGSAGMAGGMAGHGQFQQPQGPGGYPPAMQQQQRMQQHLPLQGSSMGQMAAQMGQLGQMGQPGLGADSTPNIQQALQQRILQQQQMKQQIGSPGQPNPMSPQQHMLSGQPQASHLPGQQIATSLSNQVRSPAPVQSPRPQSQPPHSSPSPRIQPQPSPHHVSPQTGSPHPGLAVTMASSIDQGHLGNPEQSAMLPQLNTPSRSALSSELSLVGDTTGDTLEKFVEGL
UniProt Q13185: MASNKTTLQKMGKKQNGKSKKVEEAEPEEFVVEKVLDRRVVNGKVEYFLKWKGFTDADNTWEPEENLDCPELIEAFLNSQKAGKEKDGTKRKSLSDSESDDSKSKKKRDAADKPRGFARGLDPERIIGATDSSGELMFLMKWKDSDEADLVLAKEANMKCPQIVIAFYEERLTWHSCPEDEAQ
UniProt P10276: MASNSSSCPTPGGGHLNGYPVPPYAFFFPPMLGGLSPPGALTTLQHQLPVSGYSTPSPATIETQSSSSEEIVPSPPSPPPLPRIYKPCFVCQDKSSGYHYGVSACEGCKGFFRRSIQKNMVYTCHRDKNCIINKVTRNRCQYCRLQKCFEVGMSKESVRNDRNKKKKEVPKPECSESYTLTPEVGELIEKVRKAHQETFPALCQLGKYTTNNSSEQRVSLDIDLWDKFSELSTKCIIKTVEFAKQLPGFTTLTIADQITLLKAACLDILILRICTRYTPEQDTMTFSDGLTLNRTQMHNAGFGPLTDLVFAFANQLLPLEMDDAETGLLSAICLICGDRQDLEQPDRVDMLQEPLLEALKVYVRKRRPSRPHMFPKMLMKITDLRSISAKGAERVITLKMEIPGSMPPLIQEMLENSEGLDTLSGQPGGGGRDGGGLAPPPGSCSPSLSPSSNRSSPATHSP
UniProt P51532: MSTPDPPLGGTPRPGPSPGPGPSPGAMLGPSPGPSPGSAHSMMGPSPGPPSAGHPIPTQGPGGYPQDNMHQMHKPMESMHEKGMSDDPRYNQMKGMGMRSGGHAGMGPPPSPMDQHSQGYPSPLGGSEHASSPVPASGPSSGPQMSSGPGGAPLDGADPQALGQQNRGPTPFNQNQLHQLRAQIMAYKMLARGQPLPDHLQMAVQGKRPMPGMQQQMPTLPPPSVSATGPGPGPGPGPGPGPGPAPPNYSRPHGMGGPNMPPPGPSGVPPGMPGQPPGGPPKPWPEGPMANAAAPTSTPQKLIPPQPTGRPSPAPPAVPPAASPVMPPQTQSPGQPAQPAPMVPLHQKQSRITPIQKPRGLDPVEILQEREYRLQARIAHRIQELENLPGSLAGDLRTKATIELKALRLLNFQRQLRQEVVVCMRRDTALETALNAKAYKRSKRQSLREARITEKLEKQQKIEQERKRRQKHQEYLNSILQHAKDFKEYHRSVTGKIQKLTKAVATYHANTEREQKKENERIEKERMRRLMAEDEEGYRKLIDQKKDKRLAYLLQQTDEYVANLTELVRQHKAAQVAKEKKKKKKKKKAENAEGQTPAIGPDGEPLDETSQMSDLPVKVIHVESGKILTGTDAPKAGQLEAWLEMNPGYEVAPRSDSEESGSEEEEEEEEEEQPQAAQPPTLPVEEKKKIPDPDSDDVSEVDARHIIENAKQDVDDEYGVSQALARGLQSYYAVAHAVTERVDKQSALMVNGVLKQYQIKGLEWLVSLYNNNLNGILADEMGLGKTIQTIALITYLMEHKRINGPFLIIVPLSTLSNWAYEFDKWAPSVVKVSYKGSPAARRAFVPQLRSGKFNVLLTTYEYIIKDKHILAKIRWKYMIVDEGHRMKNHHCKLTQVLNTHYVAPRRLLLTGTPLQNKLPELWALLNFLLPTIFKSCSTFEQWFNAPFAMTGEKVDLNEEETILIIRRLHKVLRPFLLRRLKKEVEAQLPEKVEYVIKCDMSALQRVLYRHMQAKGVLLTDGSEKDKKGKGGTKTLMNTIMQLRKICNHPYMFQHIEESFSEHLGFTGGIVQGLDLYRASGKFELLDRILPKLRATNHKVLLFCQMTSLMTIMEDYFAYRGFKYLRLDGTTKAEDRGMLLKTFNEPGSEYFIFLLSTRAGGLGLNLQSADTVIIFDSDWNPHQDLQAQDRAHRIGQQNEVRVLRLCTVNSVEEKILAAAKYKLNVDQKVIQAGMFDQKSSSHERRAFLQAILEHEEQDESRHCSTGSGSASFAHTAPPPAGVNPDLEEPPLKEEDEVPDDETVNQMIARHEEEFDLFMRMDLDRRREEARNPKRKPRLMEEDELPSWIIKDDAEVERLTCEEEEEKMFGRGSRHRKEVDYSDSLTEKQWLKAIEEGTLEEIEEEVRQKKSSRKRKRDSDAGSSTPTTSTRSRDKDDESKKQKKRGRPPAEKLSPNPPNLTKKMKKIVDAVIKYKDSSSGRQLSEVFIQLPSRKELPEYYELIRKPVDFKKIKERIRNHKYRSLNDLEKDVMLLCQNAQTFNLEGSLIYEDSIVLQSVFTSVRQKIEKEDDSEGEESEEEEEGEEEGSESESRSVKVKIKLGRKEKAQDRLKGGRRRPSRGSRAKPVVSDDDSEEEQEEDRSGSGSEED
UniProt Q969G3: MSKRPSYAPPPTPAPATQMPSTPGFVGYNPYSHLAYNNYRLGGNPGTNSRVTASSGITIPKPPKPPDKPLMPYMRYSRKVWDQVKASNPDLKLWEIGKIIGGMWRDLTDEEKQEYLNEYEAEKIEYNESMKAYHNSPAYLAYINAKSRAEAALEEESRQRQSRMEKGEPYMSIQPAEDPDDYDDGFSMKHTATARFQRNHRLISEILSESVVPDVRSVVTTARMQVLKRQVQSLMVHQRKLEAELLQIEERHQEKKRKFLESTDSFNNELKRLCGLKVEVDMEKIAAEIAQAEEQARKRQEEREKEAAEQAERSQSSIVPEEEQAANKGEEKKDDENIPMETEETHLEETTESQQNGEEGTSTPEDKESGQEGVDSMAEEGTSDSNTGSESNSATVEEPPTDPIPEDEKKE

Row | binding [1] | binding [2] | binding [3] | binding [4] | binding [5] | binding [6] | Substance
1 | binds | – | – | – | – | – | AP-2γ (from UniProt Q92754 1-450)
2 | binds | binds | binds | binds | – | – | CBP (CREB-binding protein) (from UniProt Q92793 1-2442)
3 | binds | – | – | – | – | – | CBX3 (HP1γ) (from UniProt Q13185 1-183)
4 | binds | – | – | binds | binds | – | EP300 (from UniProt Q09472 1-2414)
5 | – | – | – | – | – | binds | Estrogen Receptor alpha (ERα) (from UniProt P03372 1-595)
6 | binds | – | – | binds | – | – | GATA-3 (from UniProt P23771 1-443)
7 | binds | binds | binds | binds | – | – | GREB1 (from UniProt Q4ZG55 1-1949)
8 | – | – | binds | – | – | – | GREB1L (from UniProt Q9C091 1-1923)
9 | – | – | binds | – | – | – | HDAC2 (from UniProt Q92769 1-488)
10 | binds | – | – | – | – | – | NIPBL (from UniProt Q6KC79 1-2804)
11 | binds | – | – | – | – | – | RARα (from UniProt P10276 1-462)
12 | – | binds | binds | – | binds | – | SMARCA4 (BRG1) (from UniProt P51532 1-1647)
13 | – | – | – | – | binds | binds | SMARCB1 (BAF47) (from UniProt Q12824 1-385)
14 | – | – | binds | – | binds | binds | SMARCC2 (BAF170) (from UniProt Q8TAQ2 1-1214)
15 | – | binds | binds | – | binds | binds | SMARCE1 (BAF57) (from UniProt Q969G3 1-411)

— publication PMC5998130
